# The other results are listed elsewhere or left out.
# Sequences of proteins named here, by UniProt entry; tags and fusion partners are left off. A change or cut given only in a name is not applied to a line headed by its entry.
# UniProt Q02880: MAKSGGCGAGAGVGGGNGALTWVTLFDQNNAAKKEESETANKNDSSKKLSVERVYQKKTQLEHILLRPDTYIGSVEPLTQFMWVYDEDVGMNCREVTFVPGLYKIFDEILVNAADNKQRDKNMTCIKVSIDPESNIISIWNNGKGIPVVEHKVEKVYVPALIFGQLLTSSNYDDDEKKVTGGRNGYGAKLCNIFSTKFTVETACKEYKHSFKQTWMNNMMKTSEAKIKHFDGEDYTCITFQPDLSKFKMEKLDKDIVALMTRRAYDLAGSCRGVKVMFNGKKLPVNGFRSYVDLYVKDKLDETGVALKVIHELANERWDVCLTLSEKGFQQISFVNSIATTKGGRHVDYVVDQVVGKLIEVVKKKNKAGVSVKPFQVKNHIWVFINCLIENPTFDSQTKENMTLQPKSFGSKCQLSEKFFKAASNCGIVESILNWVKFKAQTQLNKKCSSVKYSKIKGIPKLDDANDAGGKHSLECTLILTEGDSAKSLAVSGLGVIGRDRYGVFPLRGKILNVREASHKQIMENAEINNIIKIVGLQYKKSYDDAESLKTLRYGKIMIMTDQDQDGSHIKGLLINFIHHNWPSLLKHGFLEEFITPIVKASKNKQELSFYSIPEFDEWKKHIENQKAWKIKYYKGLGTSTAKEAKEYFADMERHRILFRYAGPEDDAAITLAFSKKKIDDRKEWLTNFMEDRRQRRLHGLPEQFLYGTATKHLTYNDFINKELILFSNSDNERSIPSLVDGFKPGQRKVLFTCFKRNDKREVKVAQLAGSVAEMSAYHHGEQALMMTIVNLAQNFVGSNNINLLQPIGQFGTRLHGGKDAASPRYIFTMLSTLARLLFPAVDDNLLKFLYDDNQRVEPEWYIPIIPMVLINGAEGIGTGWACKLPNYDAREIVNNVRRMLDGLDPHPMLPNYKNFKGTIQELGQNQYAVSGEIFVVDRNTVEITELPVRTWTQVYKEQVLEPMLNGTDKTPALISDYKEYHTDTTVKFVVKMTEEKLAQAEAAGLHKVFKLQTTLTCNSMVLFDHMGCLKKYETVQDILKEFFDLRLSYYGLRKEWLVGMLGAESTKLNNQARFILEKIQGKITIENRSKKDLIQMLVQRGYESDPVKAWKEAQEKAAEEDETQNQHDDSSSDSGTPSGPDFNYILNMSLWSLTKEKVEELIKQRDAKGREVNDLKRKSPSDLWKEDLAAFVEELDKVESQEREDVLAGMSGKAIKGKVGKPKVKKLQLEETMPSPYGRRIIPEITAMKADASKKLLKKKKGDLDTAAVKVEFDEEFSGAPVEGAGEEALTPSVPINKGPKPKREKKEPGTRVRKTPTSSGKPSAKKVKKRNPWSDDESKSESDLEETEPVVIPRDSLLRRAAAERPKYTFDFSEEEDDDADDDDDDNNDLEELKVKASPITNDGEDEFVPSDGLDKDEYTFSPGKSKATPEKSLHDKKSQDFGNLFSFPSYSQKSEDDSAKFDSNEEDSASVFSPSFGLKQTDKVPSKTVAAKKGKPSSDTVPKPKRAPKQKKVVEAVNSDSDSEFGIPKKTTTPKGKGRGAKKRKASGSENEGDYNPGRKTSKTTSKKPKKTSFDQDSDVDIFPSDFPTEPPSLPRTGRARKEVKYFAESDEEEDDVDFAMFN
# UniProt P11387: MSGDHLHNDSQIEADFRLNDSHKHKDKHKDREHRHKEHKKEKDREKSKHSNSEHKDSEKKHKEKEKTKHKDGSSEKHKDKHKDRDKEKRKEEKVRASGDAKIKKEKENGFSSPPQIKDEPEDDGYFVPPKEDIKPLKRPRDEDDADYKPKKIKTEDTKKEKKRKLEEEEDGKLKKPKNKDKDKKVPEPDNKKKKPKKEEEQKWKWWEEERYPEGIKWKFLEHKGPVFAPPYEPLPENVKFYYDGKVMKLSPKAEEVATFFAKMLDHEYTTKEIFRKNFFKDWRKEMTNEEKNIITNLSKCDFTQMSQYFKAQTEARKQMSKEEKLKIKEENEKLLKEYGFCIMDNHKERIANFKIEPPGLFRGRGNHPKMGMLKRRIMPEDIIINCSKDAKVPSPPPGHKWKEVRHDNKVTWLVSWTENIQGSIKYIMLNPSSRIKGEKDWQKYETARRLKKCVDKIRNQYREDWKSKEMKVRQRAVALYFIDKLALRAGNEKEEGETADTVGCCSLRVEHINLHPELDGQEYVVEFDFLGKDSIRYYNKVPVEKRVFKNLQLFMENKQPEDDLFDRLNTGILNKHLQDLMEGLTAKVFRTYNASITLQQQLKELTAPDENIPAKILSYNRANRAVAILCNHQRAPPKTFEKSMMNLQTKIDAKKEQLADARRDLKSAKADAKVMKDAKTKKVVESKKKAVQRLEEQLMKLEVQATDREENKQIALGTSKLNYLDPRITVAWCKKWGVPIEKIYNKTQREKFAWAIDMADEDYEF
# UniProt O94842: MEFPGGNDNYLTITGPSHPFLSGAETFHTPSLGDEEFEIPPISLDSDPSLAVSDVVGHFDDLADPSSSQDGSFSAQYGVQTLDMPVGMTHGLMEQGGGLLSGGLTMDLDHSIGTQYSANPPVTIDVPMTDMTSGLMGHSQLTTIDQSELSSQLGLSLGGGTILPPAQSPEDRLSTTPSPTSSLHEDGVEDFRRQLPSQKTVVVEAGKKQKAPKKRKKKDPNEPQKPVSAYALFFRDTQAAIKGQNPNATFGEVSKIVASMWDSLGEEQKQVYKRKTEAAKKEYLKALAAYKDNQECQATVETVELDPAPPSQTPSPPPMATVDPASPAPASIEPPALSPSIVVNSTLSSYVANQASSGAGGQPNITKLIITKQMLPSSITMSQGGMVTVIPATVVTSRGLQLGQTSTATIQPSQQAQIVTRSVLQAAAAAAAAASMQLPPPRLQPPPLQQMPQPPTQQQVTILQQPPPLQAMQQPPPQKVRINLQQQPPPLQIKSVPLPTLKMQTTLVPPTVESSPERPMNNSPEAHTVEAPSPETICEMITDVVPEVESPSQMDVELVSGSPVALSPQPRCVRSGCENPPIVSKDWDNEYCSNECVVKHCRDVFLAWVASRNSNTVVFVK
# UniProt Q8N511: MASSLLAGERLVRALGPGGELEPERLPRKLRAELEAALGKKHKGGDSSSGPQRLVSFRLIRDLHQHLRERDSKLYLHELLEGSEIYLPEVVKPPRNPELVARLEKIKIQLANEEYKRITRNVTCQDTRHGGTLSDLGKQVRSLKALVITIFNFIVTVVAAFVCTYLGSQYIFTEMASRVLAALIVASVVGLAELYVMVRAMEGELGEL
# UniProt O43399: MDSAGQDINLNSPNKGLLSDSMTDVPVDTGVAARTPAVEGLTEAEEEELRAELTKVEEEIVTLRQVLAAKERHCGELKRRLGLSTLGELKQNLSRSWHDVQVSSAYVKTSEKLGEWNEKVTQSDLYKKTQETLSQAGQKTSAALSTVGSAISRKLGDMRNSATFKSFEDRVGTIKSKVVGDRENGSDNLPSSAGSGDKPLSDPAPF
# UniProt P11388: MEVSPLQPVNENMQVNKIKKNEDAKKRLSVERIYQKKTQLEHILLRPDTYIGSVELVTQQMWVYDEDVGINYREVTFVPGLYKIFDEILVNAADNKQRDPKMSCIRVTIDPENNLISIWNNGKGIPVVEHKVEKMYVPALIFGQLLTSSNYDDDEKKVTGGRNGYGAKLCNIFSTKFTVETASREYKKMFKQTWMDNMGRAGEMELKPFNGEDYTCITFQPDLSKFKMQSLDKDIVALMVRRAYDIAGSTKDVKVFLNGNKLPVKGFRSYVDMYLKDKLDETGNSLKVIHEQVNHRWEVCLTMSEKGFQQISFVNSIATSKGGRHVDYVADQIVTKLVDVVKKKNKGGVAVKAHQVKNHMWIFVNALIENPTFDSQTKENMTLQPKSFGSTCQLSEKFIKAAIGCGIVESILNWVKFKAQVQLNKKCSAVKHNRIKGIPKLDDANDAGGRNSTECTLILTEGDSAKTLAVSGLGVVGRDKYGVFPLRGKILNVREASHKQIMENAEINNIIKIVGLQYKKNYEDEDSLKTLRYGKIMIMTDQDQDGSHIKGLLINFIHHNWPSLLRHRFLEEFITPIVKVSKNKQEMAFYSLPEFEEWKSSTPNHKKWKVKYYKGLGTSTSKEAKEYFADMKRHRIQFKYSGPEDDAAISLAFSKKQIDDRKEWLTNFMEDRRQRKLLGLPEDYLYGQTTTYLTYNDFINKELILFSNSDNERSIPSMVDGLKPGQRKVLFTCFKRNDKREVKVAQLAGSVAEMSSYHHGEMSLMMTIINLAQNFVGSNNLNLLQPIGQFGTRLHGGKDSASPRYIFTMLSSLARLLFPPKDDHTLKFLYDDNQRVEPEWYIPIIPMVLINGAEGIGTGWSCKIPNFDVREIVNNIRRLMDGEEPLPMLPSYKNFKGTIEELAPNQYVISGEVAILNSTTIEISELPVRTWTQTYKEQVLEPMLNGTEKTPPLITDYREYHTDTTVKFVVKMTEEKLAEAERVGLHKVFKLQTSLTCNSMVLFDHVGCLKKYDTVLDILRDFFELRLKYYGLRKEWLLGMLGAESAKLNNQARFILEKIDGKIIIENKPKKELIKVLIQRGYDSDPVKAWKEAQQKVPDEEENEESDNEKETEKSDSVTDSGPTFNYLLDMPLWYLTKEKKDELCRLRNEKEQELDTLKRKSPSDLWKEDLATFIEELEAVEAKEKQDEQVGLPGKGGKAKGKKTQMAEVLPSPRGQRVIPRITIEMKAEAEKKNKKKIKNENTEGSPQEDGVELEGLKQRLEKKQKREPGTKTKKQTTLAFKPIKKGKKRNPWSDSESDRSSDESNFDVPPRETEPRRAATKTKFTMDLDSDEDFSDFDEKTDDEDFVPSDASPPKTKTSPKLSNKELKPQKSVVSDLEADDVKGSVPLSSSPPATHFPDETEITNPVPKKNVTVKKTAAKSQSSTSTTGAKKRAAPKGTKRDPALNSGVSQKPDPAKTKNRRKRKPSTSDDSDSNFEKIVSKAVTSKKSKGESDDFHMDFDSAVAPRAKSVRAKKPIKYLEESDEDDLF
# UniProt Q86XT9, whole entry, looked up: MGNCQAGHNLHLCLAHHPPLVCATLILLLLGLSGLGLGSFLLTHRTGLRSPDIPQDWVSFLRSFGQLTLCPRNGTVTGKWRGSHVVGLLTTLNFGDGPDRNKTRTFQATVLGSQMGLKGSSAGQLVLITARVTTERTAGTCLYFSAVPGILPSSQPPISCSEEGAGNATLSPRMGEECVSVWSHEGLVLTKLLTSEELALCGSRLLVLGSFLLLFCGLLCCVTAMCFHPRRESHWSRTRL
# UniProt Q9NQ34: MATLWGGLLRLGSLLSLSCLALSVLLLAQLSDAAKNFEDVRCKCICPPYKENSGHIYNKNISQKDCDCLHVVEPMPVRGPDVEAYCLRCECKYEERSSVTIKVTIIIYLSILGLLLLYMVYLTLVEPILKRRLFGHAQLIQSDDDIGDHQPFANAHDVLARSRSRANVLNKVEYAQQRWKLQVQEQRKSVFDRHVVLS
# UniProt Q96JJ7: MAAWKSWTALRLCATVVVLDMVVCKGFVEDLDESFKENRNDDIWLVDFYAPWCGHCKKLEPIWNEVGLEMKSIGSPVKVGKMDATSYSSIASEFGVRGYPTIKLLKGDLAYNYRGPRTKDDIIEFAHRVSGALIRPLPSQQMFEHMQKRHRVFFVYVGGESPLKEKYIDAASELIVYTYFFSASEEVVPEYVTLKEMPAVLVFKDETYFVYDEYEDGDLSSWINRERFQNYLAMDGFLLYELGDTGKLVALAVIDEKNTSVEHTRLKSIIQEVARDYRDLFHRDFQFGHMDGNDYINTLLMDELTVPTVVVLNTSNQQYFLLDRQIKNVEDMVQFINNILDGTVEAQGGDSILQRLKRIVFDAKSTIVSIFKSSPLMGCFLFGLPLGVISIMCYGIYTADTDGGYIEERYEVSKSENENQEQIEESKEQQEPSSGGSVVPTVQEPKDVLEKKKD
# UniProt Q53FA7: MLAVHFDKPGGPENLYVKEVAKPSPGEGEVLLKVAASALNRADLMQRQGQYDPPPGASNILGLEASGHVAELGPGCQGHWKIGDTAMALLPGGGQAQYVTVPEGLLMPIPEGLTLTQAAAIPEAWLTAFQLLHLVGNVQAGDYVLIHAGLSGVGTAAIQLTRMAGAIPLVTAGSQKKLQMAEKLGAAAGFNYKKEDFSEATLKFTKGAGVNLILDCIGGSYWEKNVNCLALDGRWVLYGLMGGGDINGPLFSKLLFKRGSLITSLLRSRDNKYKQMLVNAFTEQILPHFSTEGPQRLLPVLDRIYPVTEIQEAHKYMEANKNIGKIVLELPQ
# UniProt O95379: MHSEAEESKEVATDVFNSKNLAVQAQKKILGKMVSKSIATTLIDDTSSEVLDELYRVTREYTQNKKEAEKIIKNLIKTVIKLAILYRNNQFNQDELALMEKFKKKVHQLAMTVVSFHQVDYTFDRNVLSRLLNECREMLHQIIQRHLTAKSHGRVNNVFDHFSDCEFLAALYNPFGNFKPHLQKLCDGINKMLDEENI
# Compound: CC1=C(C2=C(C=C1)C(=O)C3=CC=CC=C3N2CCCN)C
# Assay: log2 fold change, soluble protein after heating vs DMSO (PISA); higher = thermal stabilisation; K562 lysate, 10 uM; active = over 0.2 and 3.5 SD of the protein, either way, in both replicates (recomputed)
# Procedure, shortened: (§1)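 Values give the log-two fold change in thermal stability against solvent controls, from duplicates. Crude K562 extract at 1 mg/mL protein, made by dounce homogenisation in PBS pH 7.4 with 1 mM MgCl2, was treated with 10 μM compound for 30 min. After 3 min heating across 48°C-58°C, aliquots were pooled, adjusted to 0.5% NP-40 at 4°C and centrifuged at 21,000xg for 90 min. The supernatant was measured by TMTpro 16plex LC-MS/MS with channel sums equalised.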
row,Target,log2 fold change
1,TMTC3 (UniProt Q6ZXV5),inactive: 0.003
2,TOP2B isoform 2 (UniProt Q02880),inactive: -0.086
3,TOP1 (UniProt P11387),inactive: 0.028
4,TOX4 (UniProt O94842),inactive: -0.002
5,TNFRSF8 (UniProt P28908),inactive: 0.004
6,TMEM63A (UniProt O94886),inactive: -0.016
7,TPP2 (UniProt Q5VZU9),inactive: 0.018
8,TMEM199 (UniProt Q8N511),active: -0.275
9,TPD52L2 isoform 7 (UniProt O43399),inactive: -0.024
10,TOP2A isoform 4 (UniProt P11388),inactive: -0.046
11,TOP3A (UniProt Q13472),inactive: -0.029
12,TMEM219 (UniProt Q86XT9),inactive: 0.01
13,TMEM9B (UniProt Q9NQ34),inactive: 0.027
14,TMX3 (UniProt Q96JJ7),inactive: -0.013
15,TPR (UniProt P12270),inactive: -0.009
16,TMEM192 (UniProt Q8IY95),inactive: -0.031
17,TPX2 (UniProt Q9ULW0),inactive: -0.008
18,TNFRSF1B (UniProt P20333),inactive: -0.057
19,TPP1 (UniProt O14773),inactive: 0.003
20,TP53I3 (UniProt Q53FA7),inactive: -0.018
21,TMEM43 (UniProt Q9BTV4),inactive: -0.009
22,TNFAIP8 isoform 4 (UniProt O95379),inactive: 0.017

# Compound: CC1=C(C=C(C=C1)NC(=O)C2=CC(=CC=C2)C(C)(C)C#N)NC3=CC4=C(C=C3)N=CN(C4=O)C
# Assay: as above
# Procedure, shortened: as §1
row,Target,log2 fold change
1,TPI1 (UniProt P60174),inactive: 0.012
2,TMOD3 (UniProt Q9NYL9),inactive: 0.026
3,TOR1AIP1 isoform 3 (UniProt Q5JTV8),inactive: -0.003
4,TNPO1 (UniProt Q92973),inactive: 0.006
5,TPP2 (UniProt P29144),inactive: 0.008
6,TOR1AIP2 (UniProt Q8NFQ8),inactive: 0.003
7,TP53BP1 isoform 2 (UniProt Q12888),inactive: 0.006
8,TP53BP2 isoform 3 (UniProt Q13625),inactive: 0.006
9,TMEM245 (UniProt Q9H330),inactive: -0.045
10,TPM1 isoform 4 (UniProt P09493),inactive: 0.011
11,TPM4 (UniProt P67936),inactive: 0.01
12,TMTC3 (UniProt Q6ZXV5),inactive: 0.019
13,TOP2B isoform 2 (UniProt Q02880),inactive: -0.034
14,TOP1 (UniProt P11387),inactive: -0.01
15,TOX4 (UniProt O94842),inactive: 0.033
16,TNFRSF8 (UniProt P28908),inactive: 0.019
17,TMEM63A (UniProt O94886),inactive: -0.024

row,Target,log2 fold change
1,TPP2 (UniProt Q5VZU9),inactive: -0.049
2,TMEM199 (UniProt Q8N511),inactive: -0.043
3,TPD52L2 isoform 7 (UniProt O43399),inactive: 0.007
4,TOP2A isoform 4 (UniProt P11388),inactive: 0.007
5,TOP3A (UniProt Q13472),inactive: -0.019
6,TMEM219 (UniProt Q86XT9),inactive: 0.045
7,TMEM9B (UniProt Q9NQ34),inactive: 0.025
8,TMX3 (UniProt Q96JJ7),inactive: 0.022
9,TPR (UniProt P12270),inactive: -0.008
10,TMEM192 (UniProt Q8IY95),inactive: 0.013
11,TPX2 (UniProt Q9ULW0),inactive: 0.062
12,TNFRSF1B (UniProt P20333),inactive: 0
13,TPP1 (UniProt O14773),inactive: 0.017
14,TP53I3 (UniProt Q53FA7),inactive: -0.035
15,TMEM43 (UniProt Q9BTV4),inactive: 0.008
16,TNFAIP8 isoform 4 (UniProt O95379),inactive: -0.054

# Compound: CC1=C(C=C(C=C1)NC(=O)C2=CC(=CC=C2)N(C)C)NC(=O)C3=CC=C(C=C3)O
# Assay: as above
# Procedure, shortened: as §1
row,Target,log2 fold change
1,TPI1 (UniProt P60174),inactive: -0.019
2,TMOD3 (UniProt Q9NYL9),inactive: 0.011
3,TOR1AIP1 isoform 3 (UniProt Q5JTV8),inactive: 0.006
4,TNPO1 (UniProt Q92973),inactive: 0.001
5,TPP2 (UniProt P29144),inactive: 0.012
6,TOR1AIP2 (UniProt Q8NFQ8),inactive: -0.013
7,TP53BP1 isoform 2 (UniProt Q12888),inactive: 0.013
8,TP53BP2 isoform 3 (UniProt Q13625),inactive: 0.018
9,TMEM245 (UniProt Q9H330),inactive: -0.044
10,TPM1 isoform 4 (UniProt P09493),inactive: -0.022
11,TPM4 (UniProt P67936),inactive: 0.013
12,TMTC3 (UniProt Q6ZXV5),inactive: -0.004
13,TOP2B isoform 2 (UniProt Q02880),inactive: 0.019
14,TOP1 (UniProt P11387),inactive: 0.051
15,TOX4 (UniProt O94842),inactive: 0.023
16,TNFRSF8 (UniProt P28908),inactive: 0.003
17,TMEM63A (UniProt O94886),inactive: 0.014

row,Target,log2 fold change
1,TPP2 (UniProt Q5VZU9),inactive: -0.017
2,TMEM199 (UniProt Q8N511),inactive: -0.016
3,TPD52L2 isoform 7 (UniProt O43399),inactive: -0.006
4,TOP2A isoform 4 (UniProt P11388),inactive: 0.02
5,TOP3A (UniProt Q13472),inactive: 0.078
6,TMEM219 (UniProt Q86XT9),inactive: -0.063
7,TMEM9B (UniProt Q9NQ34),inactive: -0.14
8,TMX3 (UniProt Q96JJ7),inactive: -0.003
9,TPR (UniProt P12270),inactive: -0.014
10,TMEM192 (UniProt Q8IY95),inactive: 0.012
11,TPX2 (UniProt Q9ULW0),inactive: 0.001
12,TNFRSF1B (UniProt P20333),inactive: 0.034
13,TPP1 (UniProt O14773),inactive: 0.016
14,TP53I3 (UniProt Q53FA7),inactive: -0.034
15,TMEM43 (UniProt Q9BTV4),inactive: -0.002
16,TNFAIP8 isoform 4 (UniProt O95379),inactive: 0.035
